# Data published in the supplement of paper PMC10849652.
# Sequences of proteins named here, by UniProt entry; tags and fusion partners are left off. A change or cut given only in a name is not applied to a line headed by its entry.
# UniProt O95229: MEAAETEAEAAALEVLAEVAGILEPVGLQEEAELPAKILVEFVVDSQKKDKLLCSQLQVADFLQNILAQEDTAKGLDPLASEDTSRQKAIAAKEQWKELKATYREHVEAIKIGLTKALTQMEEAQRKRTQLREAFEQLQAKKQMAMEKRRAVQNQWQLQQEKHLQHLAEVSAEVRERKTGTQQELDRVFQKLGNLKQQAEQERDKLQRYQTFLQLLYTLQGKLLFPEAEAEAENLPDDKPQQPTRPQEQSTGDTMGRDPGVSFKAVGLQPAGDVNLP
# UniProt Q9Y5V0: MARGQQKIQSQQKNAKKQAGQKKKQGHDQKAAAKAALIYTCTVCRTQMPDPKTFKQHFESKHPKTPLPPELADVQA
# UniProt O15014: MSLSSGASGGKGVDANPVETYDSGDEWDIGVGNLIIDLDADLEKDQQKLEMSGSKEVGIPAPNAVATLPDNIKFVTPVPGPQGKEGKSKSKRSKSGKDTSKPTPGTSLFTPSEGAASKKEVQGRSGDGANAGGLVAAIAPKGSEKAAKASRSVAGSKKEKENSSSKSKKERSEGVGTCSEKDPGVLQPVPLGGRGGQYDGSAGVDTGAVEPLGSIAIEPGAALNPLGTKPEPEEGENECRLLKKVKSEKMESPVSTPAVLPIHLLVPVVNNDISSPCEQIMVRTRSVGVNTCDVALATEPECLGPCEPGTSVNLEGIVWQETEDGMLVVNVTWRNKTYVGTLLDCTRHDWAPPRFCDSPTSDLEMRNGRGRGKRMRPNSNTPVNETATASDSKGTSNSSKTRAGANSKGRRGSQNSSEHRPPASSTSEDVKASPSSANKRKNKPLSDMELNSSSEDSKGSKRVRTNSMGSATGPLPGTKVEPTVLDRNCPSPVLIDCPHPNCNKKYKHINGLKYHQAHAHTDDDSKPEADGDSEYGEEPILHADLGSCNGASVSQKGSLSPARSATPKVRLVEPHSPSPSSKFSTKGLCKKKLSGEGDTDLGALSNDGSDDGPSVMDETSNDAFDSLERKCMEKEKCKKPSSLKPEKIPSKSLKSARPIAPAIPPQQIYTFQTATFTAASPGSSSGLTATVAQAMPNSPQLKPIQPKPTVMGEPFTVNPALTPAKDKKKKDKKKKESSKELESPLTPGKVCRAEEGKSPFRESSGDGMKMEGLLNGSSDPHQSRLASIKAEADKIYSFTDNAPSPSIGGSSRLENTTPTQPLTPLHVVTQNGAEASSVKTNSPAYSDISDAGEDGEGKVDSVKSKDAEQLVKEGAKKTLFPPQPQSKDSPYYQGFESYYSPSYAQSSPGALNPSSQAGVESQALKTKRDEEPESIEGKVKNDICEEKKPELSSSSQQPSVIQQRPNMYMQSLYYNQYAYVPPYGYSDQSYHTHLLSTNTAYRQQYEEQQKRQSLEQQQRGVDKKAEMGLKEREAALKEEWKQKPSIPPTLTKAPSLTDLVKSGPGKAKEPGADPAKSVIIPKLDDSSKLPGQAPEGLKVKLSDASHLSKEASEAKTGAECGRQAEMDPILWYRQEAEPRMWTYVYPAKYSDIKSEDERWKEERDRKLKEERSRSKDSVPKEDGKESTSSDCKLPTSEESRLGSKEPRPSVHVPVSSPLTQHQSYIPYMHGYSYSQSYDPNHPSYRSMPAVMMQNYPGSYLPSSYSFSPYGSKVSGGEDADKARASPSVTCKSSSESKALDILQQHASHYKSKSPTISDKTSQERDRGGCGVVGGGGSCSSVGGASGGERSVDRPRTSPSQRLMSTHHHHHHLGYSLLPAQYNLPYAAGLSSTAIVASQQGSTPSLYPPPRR
# UniProt Q9UHR6: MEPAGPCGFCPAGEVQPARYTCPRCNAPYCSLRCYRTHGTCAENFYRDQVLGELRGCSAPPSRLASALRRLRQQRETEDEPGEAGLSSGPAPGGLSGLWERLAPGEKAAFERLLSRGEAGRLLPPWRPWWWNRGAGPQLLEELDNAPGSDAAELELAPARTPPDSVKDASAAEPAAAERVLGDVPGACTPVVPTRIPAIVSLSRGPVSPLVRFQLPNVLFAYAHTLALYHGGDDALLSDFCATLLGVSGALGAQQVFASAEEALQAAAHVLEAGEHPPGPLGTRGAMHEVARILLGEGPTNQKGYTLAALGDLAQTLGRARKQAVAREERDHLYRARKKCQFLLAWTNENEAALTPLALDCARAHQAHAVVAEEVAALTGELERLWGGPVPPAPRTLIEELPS
# UniProt Q9Y3S2: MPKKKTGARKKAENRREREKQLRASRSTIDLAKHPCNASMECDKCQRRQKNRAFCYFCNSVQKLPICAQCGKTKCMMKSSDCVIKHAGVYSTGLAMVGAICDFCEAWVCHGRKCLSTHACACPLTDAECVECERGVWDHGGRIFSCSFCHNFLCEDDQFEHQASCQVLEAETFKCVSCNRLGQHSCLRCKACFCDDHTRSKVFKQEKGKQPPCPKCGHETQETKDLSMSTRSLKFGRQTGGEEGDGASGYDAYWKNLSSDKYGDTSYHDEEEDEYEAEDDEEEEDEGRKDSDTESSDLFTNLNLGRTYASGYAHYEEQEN
# UniProt Q96NC0: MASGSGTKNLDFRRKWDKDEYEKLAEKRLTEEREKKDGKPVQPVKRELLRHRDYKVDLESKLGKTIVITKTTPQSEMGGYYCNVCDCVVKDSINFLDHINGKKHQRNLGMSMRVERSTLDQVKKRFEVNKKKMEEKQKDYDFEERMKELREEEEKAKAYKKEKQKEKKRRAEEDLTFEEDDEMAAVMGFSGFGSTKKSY
# UniProt Q9H582: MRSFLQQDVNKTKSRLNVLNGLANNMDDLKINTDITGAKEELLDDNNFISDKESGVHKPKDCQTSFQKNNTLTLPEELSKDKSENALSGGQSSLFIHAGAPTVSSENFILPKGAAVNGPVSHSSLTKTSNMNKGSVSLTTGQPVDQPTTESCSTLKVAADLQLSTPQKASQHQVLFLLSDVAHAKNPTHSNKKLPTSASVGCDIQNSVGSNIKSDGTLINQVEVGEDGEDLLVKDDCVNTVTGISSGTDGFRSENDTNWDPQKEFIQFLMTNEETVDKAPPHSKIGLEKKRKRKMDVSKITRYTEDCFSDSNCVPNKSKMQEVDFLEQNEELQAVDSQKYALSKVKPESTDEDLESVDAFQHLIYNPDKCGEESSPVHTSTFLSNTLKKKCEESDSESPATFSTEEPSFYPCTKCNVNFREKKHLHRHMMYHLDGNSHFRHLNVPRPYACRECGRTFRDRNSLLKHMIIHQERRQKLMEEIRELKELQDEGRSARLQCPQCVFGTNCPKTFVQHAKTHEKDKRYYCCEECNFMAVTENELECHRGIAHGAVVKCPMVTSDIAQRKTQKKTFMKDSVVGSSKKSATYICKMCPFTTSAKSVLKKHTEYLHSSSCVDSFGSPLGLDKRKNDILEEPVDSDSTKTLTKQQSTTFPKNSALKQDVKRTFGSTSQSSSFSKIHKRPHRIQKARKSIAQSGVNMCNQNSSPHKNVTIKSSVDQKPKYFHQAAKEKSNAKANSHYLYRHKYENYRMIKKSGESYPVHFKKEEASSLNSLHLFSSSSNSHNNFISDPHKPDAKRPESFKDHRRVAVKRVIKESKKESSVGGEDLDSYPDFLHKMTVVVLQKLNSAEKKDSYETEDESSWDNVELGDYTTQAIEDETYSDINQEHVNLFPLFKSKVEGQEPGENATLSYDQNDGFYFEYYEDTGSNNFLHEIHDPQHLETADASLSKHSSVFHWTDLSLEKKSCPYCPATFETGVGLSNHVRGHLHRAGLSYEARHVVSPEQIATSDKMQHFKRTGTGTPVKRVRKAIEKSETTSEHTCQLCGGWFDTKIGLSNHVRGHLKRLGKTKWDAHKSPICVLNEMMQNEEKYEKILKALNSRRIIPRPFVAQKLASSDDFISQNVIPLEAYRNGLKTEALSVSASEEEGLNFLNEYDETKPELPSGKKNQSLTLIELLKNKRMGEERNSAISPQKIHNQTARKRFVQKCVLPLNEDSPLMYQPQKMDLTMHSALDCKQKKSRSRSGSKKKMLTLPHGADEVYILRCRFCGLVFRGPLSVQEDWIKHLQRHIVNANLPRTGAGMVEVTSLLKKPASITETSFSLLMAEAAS
# UniProt Q9BRR0: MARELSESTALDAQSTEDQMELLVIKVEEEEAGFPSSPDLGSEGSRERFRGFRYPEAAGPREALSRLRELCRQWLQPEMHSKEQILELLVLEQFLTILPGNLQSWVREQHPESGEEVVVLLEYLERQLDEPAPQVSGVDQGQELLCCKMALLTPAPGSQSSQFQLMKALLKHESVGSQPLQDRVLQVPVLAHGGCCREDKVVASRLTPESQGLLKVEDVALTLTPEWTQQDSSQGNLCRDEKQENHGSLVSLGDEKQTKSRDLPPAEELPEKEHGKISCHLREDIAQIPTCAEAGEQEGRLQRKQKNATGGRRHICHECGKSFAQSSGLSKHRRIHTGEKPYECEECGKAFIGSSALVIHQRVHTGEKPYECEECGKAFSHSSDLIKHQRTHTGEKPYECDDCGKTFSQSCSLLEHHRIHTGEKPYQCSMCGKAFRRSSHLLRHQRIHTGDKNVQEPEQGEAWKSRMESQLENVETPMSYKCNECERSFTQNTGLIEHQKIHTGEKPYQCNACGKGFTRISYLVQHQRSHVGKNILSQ
# UniProt O43670: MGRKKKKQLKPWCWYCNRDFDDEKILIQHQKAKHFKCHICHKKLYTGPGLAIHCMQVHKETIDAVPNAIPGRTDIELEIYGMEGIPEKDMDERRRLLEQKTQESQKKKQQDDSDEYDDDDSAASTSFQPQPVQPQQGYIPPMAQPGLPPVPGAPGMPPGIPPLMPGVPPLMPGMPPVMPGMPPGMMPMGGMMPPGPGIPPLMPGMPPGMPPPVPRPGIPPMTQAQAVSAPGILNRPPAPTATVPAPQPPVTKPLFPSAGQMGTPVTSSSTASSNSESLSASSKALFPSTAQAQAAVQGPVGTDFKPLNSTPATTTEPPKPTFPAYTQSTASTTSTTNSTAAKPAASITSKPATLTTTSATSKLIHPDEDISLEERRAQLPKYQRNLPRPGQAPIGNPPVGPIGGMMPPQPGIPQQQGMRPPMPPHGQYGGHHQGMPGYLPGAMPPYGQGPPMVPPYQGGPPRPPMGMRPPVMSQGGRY
# UniProt P17029: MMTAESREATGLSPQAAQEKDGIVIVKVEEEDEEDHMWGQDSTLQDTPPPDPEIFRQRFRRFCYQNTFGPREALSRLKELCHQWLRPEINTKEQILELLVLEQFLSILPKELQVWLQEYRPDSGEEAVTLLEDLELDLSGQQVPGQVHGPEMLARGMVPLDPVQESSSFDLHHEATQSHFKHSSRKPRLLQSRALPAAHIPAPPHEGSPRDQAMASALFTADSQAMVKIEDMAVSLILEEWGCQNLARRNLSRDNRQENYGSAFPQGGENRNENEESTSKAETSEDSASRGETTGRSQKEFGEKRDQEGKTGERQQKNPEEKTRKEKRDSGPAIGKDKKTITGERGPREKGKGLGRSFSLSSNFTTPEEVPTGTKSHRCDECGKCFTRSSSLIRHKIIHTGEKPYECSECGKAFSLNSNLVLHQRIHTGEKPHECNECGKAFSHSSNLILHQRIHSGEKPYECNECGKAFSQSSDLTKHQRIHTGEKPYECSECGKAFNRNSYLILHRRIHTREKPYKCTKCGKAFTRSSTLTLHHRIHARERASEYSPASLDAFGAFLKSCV
# UniProt Q8NF64: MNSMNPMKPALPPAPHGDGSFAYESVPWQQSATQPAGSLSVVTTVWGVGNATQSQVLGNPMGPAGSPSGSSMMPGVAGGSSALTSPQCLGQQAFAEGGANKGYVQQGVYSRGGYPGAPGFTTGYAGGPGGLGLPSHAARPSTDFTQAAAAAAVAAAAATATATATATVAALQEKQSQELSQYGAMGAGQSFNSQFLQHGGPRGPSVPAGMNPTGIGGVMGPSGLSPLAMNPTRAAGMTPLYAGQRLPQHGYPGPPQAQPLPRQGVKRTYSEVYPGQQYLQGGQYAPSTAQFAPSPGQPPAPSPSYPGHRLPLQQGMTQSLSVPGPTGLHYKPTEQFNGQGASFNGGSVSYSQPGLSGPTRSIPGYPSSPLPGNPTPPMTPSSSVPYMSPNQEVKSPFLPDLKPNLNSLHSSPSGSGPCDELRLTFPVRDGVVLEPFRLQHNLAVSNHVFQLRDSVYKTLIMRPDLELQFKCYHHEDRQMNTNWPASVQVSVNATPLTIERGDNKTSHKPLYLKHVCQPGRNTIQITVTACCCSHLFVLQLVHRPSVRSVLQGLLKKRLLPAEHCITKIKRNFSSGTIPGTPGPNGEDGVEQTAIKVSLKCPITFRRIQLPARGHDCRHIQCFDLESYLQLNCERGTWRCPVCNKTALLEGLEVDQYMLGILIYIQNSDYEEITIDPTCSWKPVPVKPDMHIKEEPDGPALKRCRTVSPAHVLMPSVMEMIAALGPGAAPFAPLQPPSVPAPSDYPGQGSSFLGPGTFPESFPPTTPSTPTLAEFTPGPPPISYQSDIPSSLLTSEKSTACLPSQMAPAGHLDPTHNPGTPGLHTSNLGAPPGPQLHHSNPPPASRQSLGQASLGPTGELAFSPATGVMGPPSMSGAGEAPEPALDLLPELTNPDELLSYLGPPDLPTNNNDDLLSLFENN
# This is one part of the list.
# How the values were obtained:
# Assay in all cases: log2 fold change, soluble protein after heating vs DMSO (PISA); higher = thermal stabilisation; K562 lysate, 10 uM; active = over 0.2 and 3.5 SD of the protein, either way, in both replicates (recomputed)
# [1] = compound: NCC(=O)Nc1ccc(-n2nc(C(F)(F)F)cc2-c2ccc3c(ccc4ccccc43)c2)cc1
# Summary of the method: (§1)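 K562 pellets were dounce-homogenised in PBS pH 7.4 containing 1 mM MgCl2, and the crude extract, at 1 mg/mL protein, was exposed to 10 μM compound for 30 min. Aliquots were heated for 3 min across 48°C-58°C, pooled, brought to 0.5% NP-40 at 4°C and spun at 21,000xg for 90 min, with the supernatant taken as soluble protein. TMTpro 16plex LC-MS/MS with equalised channel sums quantified that protein. Values are log-two fold changes in thermal stability relative to solvent controls, taken from duplicates.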
# [2] = compound: O=C(CCCCCCC(=O)Nc1ccccc1)NO [vorinostat]
# Summary of the method: as §1
# [3] = compound: O=C(O)c1ccc2c(c1)nc(Nc1cccc(Cl)c1)c1ccncc12 [silmitasertib]
# Summary of the method: as §1
# [4] = compound: O=C1NC(=O)C(c2cnc3ccccn23)=C1c1cn2c3c(cc(F)cc13)CN(C(=O)N1CCCCC1)CC2
# Summary of the method: as §1
# [5] = compound: c1cn2cc(-c3ccc4cn[nH]c4c3)nc(Nc3ccc(N4CCOCC4)cc3)c2n1 [entospletinib]
# Summary of the method: as §1
Target,log2 fold change [1],log2 fold change [2],log2 fold change [3],log2 fold change [4],log2 fold change [5]
ZWINT (UniProt O95229),inactive: 0.022,inactive: 0.129,inactive: -0.015,inactive: 0,inactive: 0.016
ZKSCAN8 (UniProt Q15776),inactive: 0.015,inactive: 0.229,inactive: -0.005,inactive: 0.055,inactive: -0.002
ZMYM2 (UniProt Q9UBW7),inactive: -0.125,active: -0.609,inactive: 0.034,inactive: 0.019,inactive: 0.069
ZNF24 (UniProt P17028),inactive: 0,inactive: -0.174,inactive: -0.023,inactive: -0.05,inactive: -0.016
ZNF706 (UniProt Q9Y5V0),inactive: -0.003,inactive: 0.139,inactive: 0.003,inactive: 0.044,inactive: 0.015
ZNF768 (UniProt Q9H5H4),inactive: 0.01,inactive: 0.051,inactive: 0.022,inactive: -0.081,inactive: -0.015
ZNF428 (UniProt M0QXZ5),inactive: 0.006,inactive: 0.079,inactive: 0.005,inactive: 0.026,inactive: 0.02
ZYG11B (UniProt Q9C0D3),inactive: 0,inactive: -0.083,inactive: -0.001,inactive: 0.086,inactive: -0.038
ZNF609 (UniProt O15014),inactive: 0.184,active: -0.309,inactive: 0.041,inactive: -0.013,inactive: -0.026
ZNHIT2 (UniProt Q9UHR6),inactive: -0.155,inactive: 0.087,inactive: -0.04,inactive: -0.016,inactive: -0.006
ZNF511 (UniProt Q8NB15),inactive: 0.211,inactive: -0.107,inactive: -0.027,inactive: 0.018,inactive: -0.036
ZNF330 (UniProt Q9Y3S2),inactive: 0.052,inactive: 0.111,inactive: 0.005,inactive: 0.067,inactive: 0.007
ZMAT2 (UniProt Q96NC0),inactive: 0.033,inactive: 0.188,inactive: -0.051,inactive: -0.024,inactive: 0.021
ZNF644 (UniProt Q9H582),inactive: -0.007,inactive: 0.222,inactive: -0.092,inactive: 0.016,inactive: -0.022
ZKSCAN3 (UniProt Q9BRR0),inactive: 0.32,inactive: 0.017,inactive: -0.091,inactive: 0.082,inactive: -0.018
ZPR1 (UniProt O75312),inactive: 0.008,inactive: 0.105,inactive: -0.009,inactive: -0.018,inactive: 0.012
ZNF207 isoform 2 (UniProt O43670),inactive: 0.061,inactive: -0.039,inactive: -0.084,inactive: -0.006,inactive: 0.034
ZSWIM8 isoform 4 (UniProt A7E2V4),inactive: 0.079,inactive: -0.07,inactive: 0.081,inactive: 0.071,inactive: -0.018
ZMYM4 (UniProt Q5VZL5),inactive: 0.05,active: -0.383,inactive: -0.016,inactive: 0.009,inactive: -0.013
ZNF318 (UniProt Q5VUA4),inactive: 0.064,active: -0.332,inactive: -0.045,inactive: -0.059,inactive: -0.024
ZZEF1 (UniProt O43149),inactive: 0.02,active: -0.263,inactive: 0.011,inactive: 0.012,inactive: 0.004
ZKSCAN1 (UniProt P17029),inactive: 0.005,inactive: -0.165,inactive: 0.006,inactive: -0.01,inactive: 0.01
ZMIZ2 (UniProt Q8NF64),inactive: 0.028,inactive: 0.142,inactive: 0.044,inactive: -0.011,inactive: -0.131
ZHX1 (UniProt Q9UKY1),inactive: 0.043,inactive: -0.249,inactive: -0.094,inactive: -0.018,inactive: -0.082

# Exported tab-delimited: part of the list above.
Target	log2 fold change [1]	log2 fold change [2]	log2 fold change [3]	log2 fold change [4]	log2 fold change [5]
ZNF24 (UniProt P17028)	inactive: 0	inactive: -0.174	inactive: -0.023	inactive: -0.05	inactive: -0.016
ZYG11B (UniProt Q9C0D3)	inactive: 0	inactive: -0.083	inactive: -0.001	inactive: 0.086	inactive: -0.038
ZNF609 (UniProt O15014)	inactive: 0.184	active: -0.309	inactive: 0.041	inactive: -0.013	inactive: -0.026
ZNF330 (UniProt Q9Y3S2)	inactive: 0.052	inactive: 0.111	inactive: 0.005	inactive: 0.067	inactive: 0.007
ZMAT2 (UniProt Q96NC0)	inactive: 0.033	inactive: 0.188	inactive: -0.051	inactive: -0.024	inactive: 0.021
ZKSCAN3 (UniProt Q9BRR0)	inactive: 0.32	inactive: 0.017	inactive: -0.091	inactive: 0.082	inactive: -0.018
ZSWIM8 isoform 4 (UniProt A7E2V4)	inactive: 0.079	inactive: -0.07	inactive: 0.081	inactive: 0.071	inactive: -0.018
